Our source for the binding values is PMC7780675.

By UniProt entry, the sequences of proteins in these tests, tags left out.
UniProt P16455: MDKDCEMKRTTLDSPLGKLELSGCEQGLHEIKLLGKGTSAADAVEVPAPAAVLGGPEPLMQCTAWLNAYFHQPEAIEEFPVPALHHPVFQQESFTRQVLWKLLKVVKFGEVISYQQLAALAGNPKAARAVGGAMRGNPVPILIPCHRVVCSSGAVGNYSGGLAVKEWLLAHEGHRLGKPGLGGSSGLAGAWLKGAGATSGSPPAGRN
UniProt P51587: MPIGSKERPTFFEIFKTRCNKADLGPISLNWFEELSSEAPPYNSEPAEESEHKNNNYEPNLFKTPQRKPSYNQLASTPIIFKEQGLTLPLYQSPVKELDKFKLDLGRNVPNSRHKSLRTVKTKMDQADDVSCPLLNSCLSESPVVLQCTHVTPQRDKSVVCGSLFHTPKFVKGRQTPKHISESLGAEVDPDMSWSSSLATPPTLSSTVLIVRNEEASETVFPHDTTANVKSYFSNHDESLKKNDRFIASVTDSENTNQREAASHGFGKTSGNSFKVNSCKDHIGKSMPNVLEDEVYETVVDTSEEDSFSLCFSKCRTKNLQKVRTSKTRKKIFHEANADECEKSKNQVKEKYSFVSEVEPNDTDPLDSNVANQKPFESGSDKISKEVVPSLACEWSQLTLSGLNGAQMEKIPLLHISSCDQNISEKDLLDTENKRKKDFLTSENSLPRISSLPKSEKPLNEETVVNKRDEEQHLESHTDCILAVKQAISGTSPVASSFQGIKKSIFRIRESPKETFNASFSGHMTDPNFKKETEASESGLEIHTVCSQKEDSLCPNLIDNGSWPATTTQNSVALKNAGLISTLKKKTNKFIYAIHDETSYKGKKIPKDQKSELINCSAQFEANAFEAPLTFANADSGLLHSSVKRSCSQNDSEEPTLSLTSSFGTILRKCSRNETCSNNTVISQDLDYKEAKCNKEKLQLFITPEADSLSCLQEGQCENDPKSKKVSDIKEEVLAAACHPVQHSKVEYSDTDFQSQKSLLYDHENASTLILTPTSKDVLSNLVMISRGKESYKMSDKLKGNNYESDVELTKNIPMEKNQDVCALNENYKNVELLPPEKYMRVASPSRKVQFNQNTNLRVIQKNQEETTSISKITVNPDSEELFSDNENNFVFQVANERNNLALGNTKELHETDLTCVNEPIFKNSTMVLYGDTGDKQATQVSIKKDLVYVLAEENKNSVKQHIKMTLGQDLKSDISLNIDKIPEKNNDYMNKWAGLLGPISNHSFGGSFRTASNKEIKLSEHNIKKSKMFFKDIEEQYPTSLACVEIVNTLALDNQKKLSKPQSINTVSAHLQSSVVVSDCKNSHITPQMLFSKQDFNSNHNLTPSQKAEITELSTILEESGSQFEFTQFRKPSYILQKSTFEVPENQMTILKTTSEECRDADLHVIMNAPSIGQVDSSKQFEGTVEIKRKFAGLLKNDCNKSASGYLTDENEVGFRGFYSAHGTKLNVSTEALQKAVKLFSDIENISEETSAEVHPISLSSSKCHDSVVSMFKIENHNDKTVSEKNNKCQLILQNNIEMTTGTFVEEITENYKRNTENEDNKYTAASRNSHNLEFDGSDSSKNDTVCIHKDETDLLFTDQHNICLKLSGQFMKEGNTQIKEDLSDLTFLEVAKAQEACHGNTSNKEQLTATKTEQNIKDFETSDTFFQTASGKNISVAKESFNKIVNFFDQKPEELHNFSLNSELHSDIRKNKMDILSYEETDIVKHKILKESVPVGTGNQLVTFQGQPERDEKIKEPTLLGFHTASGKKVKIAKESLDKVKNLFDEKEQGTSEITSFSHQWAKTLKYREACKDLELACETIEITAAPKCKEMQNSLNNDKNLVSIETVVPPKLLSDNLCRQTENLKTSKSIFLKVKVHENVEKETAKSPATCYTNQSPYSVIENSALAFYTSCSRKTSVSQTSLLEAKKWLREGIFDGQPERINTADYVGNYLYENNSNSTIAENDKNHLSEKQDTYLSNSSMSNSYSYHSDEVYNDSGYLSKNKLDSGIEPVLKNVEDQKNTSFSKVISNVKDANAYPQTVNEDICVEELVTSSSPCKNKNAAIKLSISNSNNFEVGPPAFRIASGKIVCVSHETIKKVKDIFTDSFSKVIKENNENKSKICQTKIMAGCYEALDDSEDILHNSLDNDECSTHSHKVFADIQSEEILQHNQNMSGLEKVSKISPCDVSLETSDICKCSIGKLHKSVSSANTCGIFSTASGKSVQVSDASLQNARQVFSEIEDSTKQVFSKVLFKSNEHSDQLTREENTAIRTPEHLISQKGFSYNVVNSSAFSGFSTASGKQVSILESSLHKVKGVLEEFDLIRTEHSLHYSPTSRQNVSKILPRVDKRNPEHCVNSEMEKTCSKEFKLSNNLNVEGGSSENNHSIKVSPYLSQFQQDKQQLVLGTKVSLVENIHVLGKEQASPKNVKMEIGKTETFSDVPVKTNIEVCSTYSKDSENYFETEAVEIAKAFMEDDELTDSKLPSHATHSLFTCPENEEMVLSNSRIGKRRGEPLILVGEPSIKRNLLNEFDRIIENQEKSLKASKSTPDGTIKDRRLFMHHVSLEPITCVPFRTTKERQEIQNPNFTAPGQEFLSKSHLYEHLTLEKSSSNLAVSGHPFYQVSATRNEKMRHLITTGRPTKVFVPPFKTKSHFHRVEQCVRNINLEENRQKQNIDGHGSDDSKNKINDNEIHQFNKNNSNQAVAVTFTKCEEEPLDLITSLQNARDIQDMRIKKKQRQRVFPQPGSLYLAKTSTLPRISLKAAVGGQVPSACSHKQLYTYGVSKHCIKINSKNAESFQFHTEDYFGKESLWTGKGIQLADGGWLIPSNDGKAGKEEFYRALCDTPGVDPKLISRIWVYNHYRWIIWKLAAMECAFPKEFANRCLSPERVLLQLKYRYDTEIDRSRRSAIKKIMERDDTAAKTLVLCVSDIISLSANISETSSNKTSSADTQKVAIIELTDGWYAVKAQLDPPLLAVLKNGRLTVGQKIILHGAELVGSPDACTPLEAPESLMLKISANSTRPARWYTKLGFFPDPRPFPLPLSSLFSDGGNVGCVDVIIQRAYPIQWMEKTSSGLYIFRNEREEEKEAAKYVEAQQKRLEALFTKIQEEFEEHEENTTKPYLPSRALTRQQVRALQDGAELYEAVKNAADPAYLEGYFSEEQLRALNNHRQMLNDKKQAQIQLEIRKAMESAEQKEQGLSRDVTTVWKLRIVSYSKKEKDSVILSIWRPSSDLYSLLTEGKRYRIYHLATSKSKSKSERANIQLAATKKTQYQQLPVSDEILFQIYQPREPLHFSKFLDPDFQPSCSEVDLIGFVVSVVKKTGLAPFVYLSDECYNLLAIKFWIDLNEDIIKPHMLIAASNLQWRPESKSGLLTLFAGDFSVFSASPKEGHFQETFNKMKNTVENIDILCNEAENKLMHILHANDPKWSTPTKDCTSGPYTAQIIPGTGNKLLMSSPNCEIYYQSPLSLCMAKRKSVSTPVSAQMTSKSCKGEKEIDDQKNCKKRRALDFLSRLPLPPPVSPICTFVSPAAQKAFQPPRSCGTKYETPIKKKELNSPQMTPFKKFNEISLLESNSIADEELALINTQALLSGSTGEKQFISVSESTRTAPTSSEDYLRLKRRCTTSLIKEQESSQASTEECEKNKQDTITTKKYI

These are yes or no findings as the source states them, for the method shown. In cells and extracts the contact can be indirect. Some binding calls cover weakened binding; strength is not graded here.

The target of the test is O6-methylguanine-DNA methyltransferase (human (endogenous in HONE-1 and TW01)) (UniProt P16455). Description: co-IP; lysates of HONE-1 and TW01 cells, with or without 10 µM CDDP for 8 h; 20 U/ml DNase I in the lysis buffer, sonicated; precipitated with anti-MGMT antibodies (1 µg/mL) or negative control IgG, Protein A/G resin; Western blot.

Consider BRCA2 (from UniProt P51587 1-3418), for which the binding entry is reported as “binds”.
